Drawing on article PMC7427093, “Revising the mechanism of p75NTR activation: intrinsically monomeric state of death domains invokes the "helper" hypothesis” (Scientific Reports, 2020), this text covers binding for three molecules.

No constants are given. Whether binding was seen depends on the method and setting.

For experiment [1], the target named is human p75NTR death domain (hP75DD), deamidated at N352 (human) (UniProt P08138). Nature of the experiment: NMR rotational and translational diffusion; isolated death domains in 50 mM NaPi pH 7.0 with reducing agent, various concentrations up to 1 mM, 30 C; rotational correlation time from cross-correlated relaxation, self-diffusion by PGSTE; both purified.
The target in experiment [2] is T1, human p75NTR death domain (hP75DD), residues 330-427 (human), P08138.
T1 chain: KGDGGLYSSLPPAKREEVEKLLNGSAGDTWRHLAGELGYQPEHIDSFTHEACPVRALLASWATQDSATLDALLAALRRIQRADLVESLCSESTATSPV
Kind of experiment: NMR 1H,15N-HSQC, populations of the two states on dilution and change of buffer; hP75DD in phosphate buffer, changed to HEPES, threefold dilution down to 300 μM; both purified. The settings on record: remark: other sources report otherwise.

Experiment [3] concerns the target T1, human p75NTR death domain (hP75DD), …. Nature of the experiment: NMR rotational and translational diffusion; isolated death domains in 50 mM NaPi pH 7.0 with reducing agent, various concentrations up to 1 mM, 30 C; rotational correlation time from cross-correlated relaxation, self-diffusion by PGSTE; both purified. The settings on record: remark: other sources report otherwise.

The target is the same in experiment [4]. Nature of the experiment: dynamic light scattering; hP75DD, protein concentration up to 300 μM; both purified. The settings on record: remark: other sources report otherwise.
The target of experiment [5] is rat p75NTR death domain (rP75DD), fragment 331-425 (rat) (UniProt P07174). Nature of the experiment: NMR rotational and translational diffusion; isolated death domains in 50 mM NaPi pH 7.0 with reducing agent, various concentrations up to 1 mM, 30 C; rotational correlation time from cross-correlated relaxation, self-diffusion by PGSTE; both purified.

Take “human p75NTR death domain (hP75DD), deamidated at N352 (from UniProt P08138 330-427) (domain or fragment)”: the binding entry in experiment [1] is on record as “no binding (tested: 1 mM)”.

B1: human p75NTR death domain (hP75DD), residues 330-427, P08138 330-427 (domain or fragment)
chain: T1 chain
For the molecule B1, the binding result is “no binding” in experiment [2], “no binding (tested: 1 mM)” in experiment [3] and “no binding (tested: up to 300 μM)” in experiment [4].

B2: rat p75NTR death domain (rP75DD), fragment 331-425 (domain or fragment, UniProt P07174 331-425)
chain: KGDGNLYSSLPLTKREEVEKLLNGDTWRHLAGELGYQPEHIDSFTHEACPVRALLASWGAQDSATLDALLAALRRIQRADIVESLCSESTATSPV
For the molecule B2, in experiment [5], the binding result was “no binding (tested: 1 mM)”.
